One may read the EC50 as the concentration at which the effect is half-maximal.

One compound from patent US10188617B2, “Modulation of cellular DNA repair activity to intercept malignancy” (THE BOARD OF TRUSTEES OF THE LELAND STANFORD JUNIOR …, priority 2013, dated 2019) can be followed below.

In this assay the test system is BER of ODD in SUM149PT cells. Description: High-throughput chemical screen with cell-based DNA repair assay (oxidatively damaged GFP reporter, host-cell reactivation).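 Note: SUM149PT cells pretreated 24 h with compound, then given photodynamically oxidized adenoviral GFP reporter, 24 h host-cell reactivation, GFP read as repair, undamaged reporter positive and damaged reporter negative control.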 The note with it: read-out: EC50 (image analysis); dose-response increase in GFP expression by imaging; 20 μM to 0.3 μM two-fold dilutions.

As for `Clc1ccccc1C(c1ccccc1)(c1ccccc1)n1ccnc1` [Clotrimazole], the EC50 stood at 20.8 µM.
